Experimental data reported in PMC6117270.
No constants are given. Whether binding was seen depends on the method and setting. In cells and extracts the contact can be indirect. Here binding means that the protein was enriched with, or labelled near, the bait; the list need not be complete.

Target: T1, non-POU domain containing octamer binding (NONO) protein (human (endogenous in NCI-N87, AGS and MKN-45)) (UniProt Q15233)
T1 sequence: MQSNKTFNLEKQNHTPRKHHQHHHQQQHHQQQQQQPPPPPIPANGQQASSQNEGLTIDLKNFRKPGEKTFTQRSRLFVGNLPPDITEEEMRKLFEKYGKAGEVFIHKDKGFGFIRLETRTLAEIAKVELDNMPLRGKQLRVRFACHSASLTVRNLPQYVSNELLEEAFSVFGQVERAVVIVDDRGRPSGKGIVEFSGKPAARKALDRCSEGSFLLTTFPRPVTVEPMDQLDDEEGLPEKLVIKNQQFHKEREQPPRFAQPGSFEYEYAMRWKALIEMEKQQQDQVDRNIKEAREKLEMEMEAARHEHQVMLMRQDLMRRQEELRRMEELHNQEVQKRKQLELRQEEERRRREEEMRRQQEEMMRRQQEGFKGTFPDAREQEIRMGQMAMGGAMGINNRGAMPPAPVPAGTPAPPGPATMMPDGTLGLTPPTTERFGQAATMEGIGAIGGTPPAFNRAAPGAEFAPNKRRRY
Assay: affinity purification with mass spectrometry; IP of NONO from NCI-N87 cells stably transfected with empty vector (mock) or pancEts-1; Coomassie blue staining and mass spectrometry

B1: Ets related gene (ERG) (protein, UniProt P11308-3 1-486)
chain: MIQTVPDPAAHIKEALSVVSEDQSLFECAYGTPHLAKTEMTASSSSDYGQTSKMSPRVPQQDWLSQPPARVTIKMECNPSQVNGSRNSPDECSVAKGGKMVGSPDTVGMNYGSYMEEKHMPPPNMTTNERRVIVPADPTLWSTDHVRQWLEWAVKEYGLPDVNILLFQNIDGKELCKMTKDDFQRLTPSYNADILLSHLHYLRETPLPHLTSDDVDKALQNSPRLMHARNTGGAAFIFPNTSVYPEATQRITTRPDLPYEPPRRSAWTGHGHPTPQSKAAQPSPSTVPKTEDQRPQLDPYQILGPTSSRLANPGSGQIQLWQFLLELLSDSSNSSCITWEGTNGEFKMTDPDEVARRWGERKSKPNMNYDKLSRALRYYYDKNIMTKVHGKRYAYKFDFHGIAQALQPHPPESSLYKYPSDLPYMGSYHAHPQKMNFVAPHPPALPVTSSSFFAAPNPYWNSPTGGIYPNTRLPTSHMPSHLGTYY
With B1 the binding was “binds”.
